From PMC3422340

Assays:
[1] = molecular target: T1, LexA-Sdc-4 cytoplasmic domain (S4CD) (UniProt P34901); assay: two-hybrid; LexA bait fusions (pBTM116) and VP16 prey fusions (pVP16) in S. cerevisiae L40; β-galactosidase activity as reporter (histidine prototrophy too in the screen)
T1 sequence: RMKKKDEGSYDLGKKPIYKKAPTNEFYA

[2] = molecular target: T2, LexA-S1CD fusion protein (syndecan-1 cytoplasmic domain bait) (mouse) (UniProt P18828); assay: as above
T2 sequence: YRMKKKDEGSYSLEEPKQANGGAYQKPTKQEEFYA

[3] = molecular target: T3, LexA-Sdc-3 cytoplasmic domain (S3CD) (UniProt P33671); assay: as above
T3 sequence: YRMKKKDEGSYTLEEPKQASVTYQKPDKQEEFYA

[4] = molecular target: glutathione S-transferase (GST) alone; assay: pull-down; GST or GST-S1CD adsorbed to glutathione-agarose, incubated 2 hours at 4°C with triple detergent extracts of 3T3 cells that overexpress Topors, diluted in NET-BSA; eluted with glutathione; western blot with chicken anti-Topors; only the target purified

VP16-Prey 36 fusion protein (murine Topors 398-516) (mouse) (domain or fragment)
binding [1]: no binding
binding [2]: binds
binding [3]: binds weakly

VP16-Topors 398–516 deletion mutant Δ423–440 (mouse) (domain or fragment)
binding [2]: binds

VP16-Topors 398–516 deletion mutant Δ441–457 (mouse) (domain or fragment)
binding [2]: binds

VP16-Topors 398–516 deletion mutant Δ454–516 (mouse) (domain or fragment)
binding [2]: no binding

VP16-Topors 398–516 deletion mutant Δ477–492 (mouse) (domain or fragment)
binding [2]: binds

VP16-Topors 398–516 deletion mutant Δ493–510 (mouse) (domain or fragment)
binding [2]: no binding

B1: carboxyl-terminal c-Myc epitope-tagged murine Topors overexpressed in 3T3 cells (protein, UniProt Q80Z37 1-1016)
chain: MGSQPPPPGSPLSREEGEAPPLVPAEEGRRRSRRVRLRGSCRHRPSLLSRRELASNGPAVPATASSEIMASAAKEFKMDNFSPKAGTSKLQQTVPADASPDSKCPICLDRFDNVSYLDRCLHKFCFRCVQEWSKNKAECPLCKQPFDSIFHSVRAEDDFKEYVLRPSYNGSFTNPEVRRFRYRTTMTRERSASLYSPSSTVSRRTTTPPDSGVLFEGLGISTRPRDVDIPQFMRQMALRGPTTTDERSLRKIQEQDIINFRRTLYRAGVRVRSIEDGGRYRDISAEFFRRNPACLHRLVPWLKRELTVLFGAHGSLVNIVQHIIMSNVTRYDLESQAFVSDLRPFLLNRTEHFIHEFISFARSPFNMAAFDQHANYDCPPSSEEGSRSDSSVITISPDEAETQELDMNASTVRQAPWDDETPGPSYSSSEQVHVGVSSLLNSSDSSDEELVSGGTTSQIQGVQTNDDVNNDSDSSSDNCVIVGFVKPLAERTPELVELSSDSEELGPYEKVETVKTQEQEQSYSSGDSDVSRASSPRSVLGKDEQMSKSHCDSDTRISSKKEEKRSTSLPAPRDSSSTRGDRVCSPYNHRHRKGGRSRSSDSRSQSRSGHDPRNHRKHGKKRLRNKRSRSRESSSRPRARKDKKRSRTRDSSWSRRSQTLSLSSGSTSRSRSRSSDHGKRRSRSRNRDRYYLRNNYGSKYKWEYTYYSRNKDRDGYESSYRRRTLSRAHYSRQSSSPEFRIQSFSERTNARKKNHSERKYYYYERRRSRSVSSNRSRTTSAGPDRVRNEKPGGKRKYKTRHLEGTSEEAQPAREFTSKGKDSHYQKSKLDGSYKNESDSFSDSRSSDRETKHKRRRRRTRSLSVEIVYEGKATDTSKHHKKKKKKHKKKHKKHHGDNTSRSPVVITIDSDSDGESEVKAGIECSNGSLPQPIQDGAFETKDVVTIEDELGVLDKDCDVTALADDLSTSQTVENCDSPAVPVEQTLDVREESTFASDLESQSSNVSIQAEPSRPVPS
binding [4]: no binding

No constants are given. Whether binding was seen depends on the method and setting. For part of these data: Binding calls can cover weak binding; strength is not graded here. For part of these data: Tags and fused reporters may be left off the sequences shown. For part of these data: Binding seen in cells or lysates may run through a third protein.
